In this test the target is T1, Rps2-FLAG (C-terminally FLAG-tagged RPS2/uS5, 40S ribosomal subunit protein) (S. cerevisiae) (UniProt P25443).
T1 sequence: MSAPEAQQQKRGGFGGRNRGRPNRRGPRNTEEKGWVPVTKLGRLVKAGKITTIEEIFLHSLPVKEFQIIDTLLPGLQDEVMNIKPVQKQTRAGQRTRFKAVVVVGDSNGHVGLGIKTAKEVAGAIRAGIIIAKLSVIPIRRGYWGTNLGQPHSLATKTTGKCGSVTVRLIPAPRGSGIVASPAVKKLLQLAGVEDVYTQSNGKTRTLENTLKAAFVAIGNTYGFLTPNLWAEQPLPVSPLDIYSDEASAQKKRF
Nature of the test: co-IP; Rps2-FLAG-tagged 40S ribosomes immunoprecipitated from yeast lysates (WT and hES9S rRNA strains) on anti-FLAG M2 affinity agarose at 4°C, lysis buffer 20 mM Tris-HCl pH 7.5, 150 mM NaCl, 1.5 mM MgCl2, 2 mM DTT; washed (300 mM NaCl wash buffer), eluted with 3xFLAG peptide; western blot of input, unbound and elution. (In western blotting, separated proteins are transferred to a membrane and probed.)

Results are given in words; binding and its absence hold for the method and conditions named. In cells and extracts the contact can be indirect. Some results given as binding are weak or reduced against the parent protein; the word gives no strength. Where a sequence is shown, tags or fusion partners need not be part of it.

B1: Rps5/uS7 (40S ribosomal subunit component) (protein, UniProt P26783 1-225)
chain: MSDTEAPVEVQEDFEVVEEFTPVVLATPIPEEVQQAQTEIKLFNKWSFEEVEVKDASLVDYVQVRQPIFVAHTAGRYANKRFRKAQCPIIERLTNSLMMNGRNNGKKLKAVRIIKHTLDIINVLTDQNPIQVVVDAITNTGPREDTTRVGGGGAARRQAVDVSPLRRVNQAIALLTIGAREAAFRNIKTIAETLAEELINAAKGSSTSYAIKKKDELERVAKSNR
For B1, the binding result is listed as “binds”.

Source of the values: article PMC8270675.
